No constants are given. Whether binding was seen depends on the method and setting.
Target: human TMEM87A (hTMEM87A), renamed Golgi-pH-regulating cation channel (GolpHCat) (human) (UniProt Q8NBN3)
Assay: cryo-EM structure; single-particle cryo-EM of purified hTMEM87A in detergent (LMNG/CHS), 50 mM Tris pH 9.0, 250 mM NaCl, ~0.8 mg/ml; overall resolution 3.1 Å; both purified

binding: no binding
B1: human TMEM87A (hTMEM87A), renamed Golgi-pH-regulating cation channel (GolpHCat) (protein, UniProt Q8NBN3-1 22-555)
chain: SPLSFFSAGPATVAAADRSKWHIPIPSGKNYFSFGKILFRNTTIFLKFDGEPCDLSLNITWYLKSADCYNEIYNFKAEEVELYLEKLKEKRGLSGKYQTSSKLFQNCSELFKTQTFSGDFMHRLPLLGEKQEAKENGTNLTFIGDKTAMHEPLQTWQDAPYIFIVHIGISSSKESSKENSLSNLFTMTVEVKGPYEYLTLEDYPLMIFFMVMCIVYVLFGVLWLAWSACYWRDLLRIQFWIGAVIFLGMLEKAVFYAEFQNIRYKGESVQGALILAELLSAVKRSLARTLVIIVSLGYGIVKPRLGVTLHKVVVAGALYLLFSGMEGVLRVTGAQTDLASLAFIPLAFLDTALCWWIFISLTQTMKLLKLRRNIVKLSLYRHFTNTLILAVAASIVFIIWTTMKFRIVTCQSDWRELWVDDAIWRLLFSMILFVIMVLWRPSANNQRFAFSPLSEEEEEDEQKEPMLKESFEGMKMRSTKQEPNGNSKVNKAQEDDLKWVEENVPSSVTDVALPALLDSDEERMITHFERSKME
modifications: N-linked oligosaccharides at N62, N79 and N127

Reference: publication PMC11239671, “GolpHCat (TMEM87A), a unique voltage-dependent cation channel in Golgi apparatus, contributes to Golgi-pH maintenance and hippocampus-dependent memory” (Nature Communications, 2024)
